The exact form of at least one protein or probe is not confirmed. Results from cells or extracts need not show a direct contact. For part of these data: Protein sequences can lack the tags named with them.
Columns and labels:
Test in all cases: EMSA
[1] = test system: T1, GLI1ΔN del1-128 (Homo sapiens); details: U2OS nuclear extract; EMSA as previously described (ref 19); protein in an extract; residues 1-978; protein details: Flag; label: 32P (T4 polynucleotide kinase)
T1 sequence (looked up): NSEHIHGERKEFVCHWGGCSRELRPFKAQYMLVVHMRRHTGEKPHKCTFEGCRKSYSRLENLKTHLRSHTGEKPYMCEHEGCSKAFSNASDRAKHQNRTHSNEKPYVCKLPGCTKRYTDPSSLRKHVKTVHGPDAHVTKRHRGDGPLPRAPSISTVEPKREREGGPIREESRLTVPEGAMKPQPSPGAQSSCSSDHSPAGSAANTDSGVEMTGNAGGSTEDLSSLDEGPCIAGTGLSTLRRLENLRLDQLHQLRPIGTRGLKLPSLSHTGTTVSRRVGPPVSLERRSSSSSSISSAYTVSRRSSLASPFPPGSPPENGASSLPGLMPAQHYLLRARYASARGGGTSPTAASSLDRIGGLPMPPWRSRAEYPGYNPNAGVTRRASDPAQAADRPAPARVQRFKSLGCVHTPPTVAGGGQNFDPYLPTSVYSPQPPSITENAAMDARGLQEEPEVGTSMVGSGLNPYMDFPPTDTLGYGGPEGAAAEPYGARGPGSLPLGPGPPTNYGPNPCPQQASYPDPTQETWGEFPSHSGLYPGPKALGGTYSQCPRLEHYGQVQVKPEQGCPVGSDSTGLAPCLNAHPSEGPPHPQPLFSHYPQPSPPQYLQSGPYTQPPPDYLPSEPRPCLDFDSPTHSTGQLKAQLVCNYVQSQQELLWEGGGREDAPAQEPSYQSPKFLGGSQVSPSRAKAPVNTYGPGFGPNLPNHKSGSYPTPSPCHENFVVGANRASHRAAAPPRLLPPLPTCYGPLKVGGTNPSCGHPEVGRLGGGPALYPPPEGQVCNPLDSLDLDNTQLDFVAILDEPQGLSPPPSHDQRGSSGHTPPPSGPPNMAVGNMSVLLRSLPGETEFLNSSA

[2] = target: GLI1FL (GLI1 isoform 1) (Homo sapiens) (UniProt P08151); details: U2OS nuclear extract; EMSA as previously described (ref 19); protein in an extract; residues 1-1106; protein details: Flag; label: 32P (T4 polynucleotide kinase)
[3] = target: T2, OCT1 (UniProt P14859); details: U2OS nuclear extract, quality control; EMSA as previously described (ref 19); protein in an extract; label: 32P (T4 polynucleotide kinase)
T2 sequence (looked up, limits assumed): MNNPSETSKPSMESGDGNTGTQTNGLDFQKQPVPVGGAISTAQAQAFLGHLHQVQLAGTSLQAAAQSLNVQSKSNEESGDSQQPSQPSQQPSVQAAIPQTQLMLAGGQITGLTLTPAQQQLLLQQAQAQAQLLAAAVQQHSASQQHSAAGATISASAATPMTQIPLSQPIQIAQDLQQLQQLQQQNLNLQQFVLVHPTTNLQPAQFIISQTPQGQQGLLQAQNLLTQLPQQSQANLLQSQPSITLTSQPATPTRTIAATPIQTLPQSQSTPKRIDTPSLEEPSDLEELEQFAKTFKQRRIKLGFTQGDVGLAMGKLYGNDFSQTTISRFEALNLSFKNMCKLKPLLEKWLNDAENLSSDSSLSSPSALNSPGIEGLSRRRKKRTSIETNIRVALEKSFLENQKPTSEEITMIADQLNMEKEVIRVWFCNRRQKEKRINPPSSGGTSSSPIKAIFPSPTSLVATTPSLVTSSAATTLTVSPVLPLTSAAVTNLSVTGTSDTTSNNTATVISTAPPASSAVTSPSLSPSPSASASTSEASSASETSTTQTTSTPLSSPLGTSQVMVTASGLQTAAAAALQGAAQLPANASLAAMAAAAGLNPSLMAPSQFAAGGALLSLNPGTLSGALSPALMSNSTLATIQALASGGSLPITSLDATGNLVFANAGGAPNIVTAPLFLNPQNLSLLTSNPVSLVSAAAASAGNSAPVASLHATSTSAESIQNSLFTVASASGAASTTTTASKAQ

AGCTACCTGGGTGGTCTCTTCGA (double strand) [GLIRE]
binding result [1]: binds
binding result [2]: binds

GAGAGGAATTTGCATTTCCACCGACCTTCC (double strand) [POURE]
binding result [3]: binds
